{"source": "the supplement of paper PMC11438910", "binders": {"B1": {"name": "4-173.1 (protein)", "chain 1": "QLQLQESGPGLVKPSETLSLTCAVSGASISSNYWSWIRQAPGKGLEWIGRISGSSGSTDYNPSLKSRVTISTDTSKNQFSLKLNSVTAADTAVYYCARVSYWGHYGDYWGQGVLVTVSS", "chain 2": "QPVLTQPSSHSASPGAPARLTCTLSSGFSVGDFWIRWYQQKPGSPPRYLLYYHSDSDKHQGSGVPSRFSGSNDASANAGILHISGLQPEDEADYYCCTWHGNSKTQIFGAGTRLTVL"}}, "experiment_in_all_cases": "fluorescence intensity of antibody binding to polysaccharide-coupled beads; higher = stronger binding", "key": {"[1]": {"biological_target": "pneumococcal polysaccharide Pn33B", "experimental": "(§1)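 Recombinant rhesus-murine chimeric IgG1 antibodies were tested against antigen-coupled MagPlex beads in a 96-plex Luminex direct immunoassay (dLIA). The beads carried pneumococcal capsular polysaccharides of 93 serotypes plus C-polysaccharides. Antibody was added at 0.1–12,500 ng/mL for 1 h, then PE anti-mouse IgG, and net MFI was read on a Bio-Plex 3D. Only the rhesus variable regions are printed; constant regions are murine IgG1/kappa/lambda, and the signal peptide is MGWSCIILFLVATATGVHS.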"}, "[2]": {"biological_target": "pneumococcal polysaccharide Pn33C", "experimental": "as §1"}, "[3]": {"biological_target": "pneumococcal polysaccharide Pn33D", "experimental": "as §1"}, "[4]": {"biological_target": "pneumococcal polysaccharide Pn33F", "experimental": "as §1"}, "[5]": {"biological_target": "pneumococcal polysaccharide Pn34", "experimental": "as §1"}, "[6]": {"biological_target": "pneumococcal polysaccharide Pn35A", "experimental": "as §1"}, "[7]": {"biological_target": "pneumococcal polysaccharide Pn35B", "experimental": "as §1"}, "[8]": {"biological_target": "pneumococcal polysaccharide Pn35C", "experimental": "as §1"}, "[9]": {"biological_target": "pneumococcal polysaccharide Pn35F", "experimental": "as §1"}, "[10]": {"biological_target": "pneumococcal polysaccharide Pn36", "experimental": "as §1"}, "[11]": {"biological_target": "pneumococcal polysaccharide Pn37", "experimental": "as §1"}, "[12]": {"biological_target": "pneumococcal polysaccharide Pn38", "experimental": "as §1"}, "[13]": {"details": "antibody concentration 2.8593 ng/mL"}, "[14]": {"details": "antibody concentration 15.2894 ng/mL"}, "[15]": {"details": "antibody concentration 81.7561 ng/mL"}, "[16]": {"details": "antibody concentration 437.17 ng/mL"}, "[17]": {"details": "antibody concentration 2337.65 ng/mL"}, "[18]": {"details": "antibody concentration 12500 ng/mL"}, "[19]": {"details": "antibody concentration 0.1 ng/mL"}, "[20]": {"details": "antibody concentration 0.534724 ng/mL"}}, "note": "The other results are listed elsewhere or left out. The signal is at background level for most entries.", "data": [{"binder": "B1", "values": [{"measurement": "fluorescence intensity", "setting": "[1]; [13]", "result": 18.5, "unit": "MFI"}, {"measurement": "fluorescence intensity", "setting": "[1]; [14]", "result": 18, "unit": "MFI"}, {"measurement": "fluorescence intensity", "setting": "[1]; [15]", "result": 18.8, "unit": "MFI"}, {"measurement": "fluorescence intensity", "setting": "[1]; [16]", "result": 19, "unit": "MFI"}, {"measurement": "fluorescence intensity", "setting": "[1]; [17]", "result": 18.8, "unit": "MFI"}, {"measurement": "fluorescence intensity", "setting": "[1]; [18]", "result": 20.5, "unit": "MFI"}, {"measurement": "fluorescence intensity", "setting": "[2]; [19]", "result": 19, "unit": "MFI"}, {"measurement": "fluorescence intensity", "setting": "[2]; [20]", "result": 19.5, "unit": "MFI"}, {"measurement": "fluorescence intensity", "setting": "[2]; [13]", "result": 17.8, "unit": "MFI"}, {"measurement": "fluorescence intensity", "setting": "[2]; [14]", "result": 20.2, "unit": "MFI"}, {"measurement": "fluorescence intensity", "setting": "[2]; [15]", "result": 20.5, "unit": "MFI"}, {"measurement": "fluorescence intensity", "setting": "[2]; [16]", "result": 19.5, "unit": "MFI"}, {"measurement": "fluorescence intensity", "setting": "[2]; [17]", "result": 21, "unit": "MFI"}, {"measurement": "fluorescence intensity", "setting": "[2]; [18]", "result": 29.5, "unit": "MFI"}, {"measurement": "fluorescence intensity", "setting": "[3]; [19]", "result": 16, "unit": "MFI"}, {"measurement": "fluorescence intensity", "setting": "[3]; [20]", "result": 16, "unit": "MFI"}, {"measurement": "fluorescence intensity", "setting": "[3]; [13]", "result": 17, "unit": "MFI"}, {"measurement": "fluorescence intensity", "setting": "[3]; [14]", "result": 16, "unit": "MFI"}, {"measurement": "fluorescence intensity", "setting": "[3]; [15]", "result": 15.8, "unit": "MFI"}, {"measurement": "fluorescence intensity", "setting": "[3]; [16]", "result": 16.5, "unit": "MFI"}, {"measurement": "fluorescence intensity", "setting": "[3]; [17]", "result": 18.5, "unit": "MFI"}, {"measurement": "fluorescence intensity", "setting": "[3]; [18]", "result": 19.2, "unit": "MFI"}, {"measurement": "fluorescence intensity", "setting": "[4]; [19]", "result": 14.2, "unit": "MFI"}, {"measurement": "fluorescence intensity", "setting": "[4]; [20]", "result": 13.5, "unit": "MFI"}, {"measurement": "fluorescence intensity", "setting": "[4]; [13]", "result": 14, "unit": "MFI"}, {"measurement": "fluorescence intensity", "setting": "[4]; [14]", "result": 14, "unit": "MFI"}, {"measurement": "fluorescence intensity", "setting": "[4]; [15]", "result": 14.8, "unit": "MFI"}, {"measurement": "fluorescence intensity", "setting": "[4]; [16]", "result": 13.8, "unit": "MFI"}, {"measurement": "fluorescence intensity", "setting": "[4]; [17]", "result": 17.5, "unit": "MFI"}, {"measurement": "fluorescence intensity", "setting": "[4]; [18]", "result": 43.5, "unit": "MFI"}, {"measurement": "fluorescence intensity", "setting": "[5]; [19]", "result": 15, "unit": "MFI"}, {"measurement": "fluorescence intensity", "setting": "[5]; [20]", "result": 16, "unit": "MFI"}, {"measurement": "fluorescence intensity", "setting": "[5]; [13]", "result": 14.5, "unit": "MFI"}, {"measurement": "fluorescence intensity", "setting": "[5]; [14]", "result": 13.5, "unit": "MFI"}, {"measurement": "fluorescence intensity", "setting": "[5]; [15]", "result": 14.5, "unit": "MFI"}, {"measurement": "fluorescence intensity", "setting": "[5]; [16]", "result": 14.5, "unit": "MFI"}, {"measurement": "fluorescence intensity", "setting": "[5]; [17]", "result": 14.8, "unit": "MFI"}, {"measurement": "fluorescence intensity", "setting": "[5]; [18]", "result": 16.5, "unit": "MFI"}, {"measurement": "fluorescence intensity", "setting": "[6]; [19]", "result": 17.5, "unit": "MFI"}, {"measurement": "fluorescence intensity", "setting": "[6]; [20]", "result": 18, "unit": "MFI"}, {"measurement": "fluorescence intensity", "setting": "[6]; [13]", "result": 19, "unit": "MFI"}, {"measurement": "fluorescence intensity", "setting": "[6]; [14]", "result": 17.5, "unit": "MFI"}, {"measurement": "fluorescence intensity", "setting": "[6]; [15]", "result": 16.5, "unit": "MFI"}, {"measurement": "fluorescence intensity", "setting": "[6]; [16]", "result": 19, "unit": "MFI"}, {"measurement": "fluorescence intensity", "setting": "[6]; [17]", "result": 20.5, "unit": "MFI"}, {"measurement": "fluorescence intensity", "setting": "[6]; [18]", "result": 33.5, "unit": "MFI"}, {"measurement": "fluorescence intensity", "setting": "[7]; [19]", "result": 19.5, "unit": "MFI"}, {"measurement": "fluorescence intensity", "setting": "[7]; [20]", "result": 20.5, "unit": "MFI"}, {"measurement": "fluorescence intensity", "setting": "[7]; [13]", "result": 20.5, "unit": "MFI"}, {"measurement": "fluorescence intensity", "setting": "[7]; [14]", "result": 19, "unit": "MFI"}, {"measurement": "fluorescence intensity", "setting": "[7]; [15]", "result": 18.5, "unit": "MFI"}, {"measurement": "fluorescence intensity", "setting": "[7]; [16]", "result": 18, "unit": "MFI"}, {"measurement": "fluorescence intensity", "setting": "[7]; [17]", "result": 19.5, "unit": "MFI"}, {"measurement": "fluorescence intensity", "setting": "[7]; [18]", "result": 28, "unit": "MFI"}, {"measurement": "fluorescence intensity", "setting": "[8]; [19]", "result": 20, "unit": "MFI"}, {"measurement": "fluorescence intensity", "setting": "[8]; [20]", "result": 20, "unit": "MFI"}, {"measurement": "fluorescence intensity", "setting": "[8]; [13]", "result": 20.8, "unit": "MFI"}, {"measurement": "fluorescence intensity", "setting": "[8]; [14]", "result": 21, "unit": "MFI"}, {"measurement": "fluorescence intensity", "setting": "[8]; [15]", "result": 20.5, "unit": "MFI"}, {"measurement": "fluorescence intensity", "setting": "[8]; [16]", "result": 20.5, "unit": "MFI"}, {"measurement": "fluorescence intensity", "setting": "[8]; [17]", "result": 21, "unit": "MFI"}, {"measurement": "fluorescence intensity", "setting": "[8]; [18]", "result": 22.5, "unit": "MFI"}, {"measurement": "fluorescence intensity", "setting": "[9]; [19]", "result": 19.2, "unit": "MFI"}, {"measurement": "fluorescence intensity", "setting": "[9]; [20]", "result": 20, "unit": "MFI"}, {"measurement": "fluorescence intensity", "setting": "[9]; [13]", "result": 19.2, "unit": "MFI"}, {"measurement": "fluorescence intensity", "setting": "[9]; [14]", "result": 20.8, "unit": "MFI"}, {"measurement": "fluorescence intensity", "setting": "[9]; [15]", "result": 21, "unit": "MFI"}, {"measurement": "fluorescence intensity", "setting": "[9]; [16]", "result": 23.8, "unit": "MFI"}, {"measurement": "fluorescence intensity", "setting": "[9]; [17]", "result": 22.5, "unit": "MFI"}, {"measurement": "fluorescence intensity", "setting": "[9]; [18]", "result": 25.8, "unit": "MFI"}, {"measurement": "fluorescence intensity", "setting": "[10]; [19]", "result": 16, "unit": "MFI"}, {"measurement": "fluorescence intensity", "setting": "[10]; [20]", "result": 15.5, "unit": "MFI"}, {"measurement": "fluorescence intensity", "setting": "[10]; [13]", "result": 16.5, "unit": "MFI"}, {"measurement": "fluorescence intensity", "setting": "[10]; [14]", "result": 16, "unit": "MFI"}, {"measurement": "fluorescence intensity", "setting": "[10]; [15]", "result": 17, "unit": "MFI"}, {"measurement": "fluorescence intensity", "setting": "[10]; [16]", "result": 17, "unit": "MFI"}, {"measurement": "fluorescence intensity", "setting": "[10]; [17]", "result": 18.2, "unit": "MFI"}, {"measurement": "fluorescence intensity", "setting": "[10]; [18]", "result": 28, "unit": "MFI"}, {"measurement": "fluorescence intensity", "setting": "[11]; [19]", "result": 26.5, "unit": "MFI"}, {"measurement": "fluorescence intensity", "setting": "[11]; [20]", "result": 26.5, "unit": "MFI"}, {"measurement": "fluorescence intensity", "setting": "[11]; [13]", "result": 26.5, "unit": "MFI"}, {"measurement": "fluorescence intensity", "setting": "[11]; [14]", "result": 25.8, "unit": "MFI"}, {"measurement": "fluorescence intensity", "setting": "[11]; [15]", "result": 26.5, "unit": "MFI"}, {"measurement": "fluorescence intensity", "setting": "[11]; [16]", "result": 26.8, "unit": "MFI"}, {"measurement": "fluorescence intensity", "setting": "[11]; [17]", "result": 36, "unit": "MFI"}, {"measurement": "fluorescence intensity", "setting": "[11]; [18]", "result": 98.5, "unit": "MFI"}, {"measurement": "fluorescence intensity", "setting": "[12]; [19]", "result": 28, "unit": "MFI"}, {"measurement": "fluorescence intensity", "setting": "[12]; [20]", "result": 26, "unit": "MFI"}, {"measurement": "fluorescence intensity", "setting": "[12]; [13]", "result": 26.8, "unit": "MFI"}, {"measurement": "fluorescence intensity", "setting": "[12]; [14]", "result": 27.2, "unit": "MFI"}]}]}
